In PubChem BioAssay AID504594 (Broad Institute, 2011):
“And” between values parts separate entries of the source, which are not always exact repeats. Equal values may be shown once. Hit rate of the full screen: of about 2,000 compounds, fewer than 10 were called active.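 The calls were made as follows: active = growth inhibition of at least 75% in every replicate, which also brings the mean inhibition to 75% or more; inconclusive = mean inhibition 75% or more but some replicate under 75%; inactive = the rest.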 This is one part of the list.

Assay: growth inhibition of PfHsp90-dependent yeast, primary screen, antimalarial PfHsp90 inhibitor project, S. cerevisiae, BacTiter-Glo luminescence (AID 504594);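 also: 0% = DMSO neutral control wells and 100% = 20 µM radicicol control wells; higher value means stronger growth inhibition because the sign is flipped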
Conditions: S. cerevisiae expressing PfHsp90, BacTiter-Glo growth, 48 h; at 9.4 µM; hits give high values
In the case of `COC1CCCCC1Nc1ccc(C)c(C)c1` (stereo unspecified), the growth inhibition is reported as inactive: 5.91%.
With `COCCn1c(/C=C/c2ccccc2)nc2ccccc21` the growth inhibition was inactive: -5.73%.
In the case of `CC1CNCCN1S(=O)(=O)c1cccc2cnccc12` (stereo unspecified), the growth inhibition is reported as inactive: -3.57%.
With `CCOC(=O)C1=C[C@]2(CC)CCCN3CCc4c(n1c1ccccc41)[C@@H]32` the growth inhibition was inactive: 11.2%.
In the case of `Cc1ccc2c(c1)C(C)(C)[C@]1(C)NC(=O)CCN21`, the growth inhibition is reported as inactive: -7.32%.
With `CC(=O)OC1c2c(ccc3ccc(=O)oc23)OC(C)(C)C1OC(=O)CC(C)C` (stereo unspecified) the growth inhibition was inactive: -3.94%.
With `CCOC(=O)c1c(C)oc2c1C(=O)c1ccccc1C2=O` the growth inhibition was inactive: -0.693%.
With `O=C(CN1CC[n+]2c(-c3cccs3)csc21)c1ccc(Br)cc1` the growth inhibition was inactive: -7.32%.
For `Cc1ccccc1NC(=O)C1c2ccccc2Oc2ccccc21`, the growth inhibition was inactive: 0.0755%.
In the case of `Cc1ccc(C(CC(=O)NCc2ccco2)c2ccc(OC(C)C)cc2)cc1` (stereo unspecified), the growth inhibition is reported as inactive: 19.3%.
In the case of `CCCCOc1cc(C(=O)NCCN(CC)CC)c2ccccc2n1`, the growth inhibition is reported as inactive: 7.6% and inactive: 11.3%.
In the case of `COc1cccc(CC2CC(=O)N(c3ccc4c(C)cc(=O)oc4c3)C2=O)c1` (stereo unspecified), the growth inhibition is reported as inactive: 0.322%.
In the case of `O=C1CCc2cc(OCCCCc3nnnn3C3CCCCC3)ccc2N1`, the growth inhibition is reported as inactive: 4.02%.
In the case of `CCS(=O)(=O)CCn1c([N+](=O)[O-])cnc1C`, the growth inhibition is reported as inactive: -11.7%.
With `C(=C\c1ccc2ccccc2n1)/c1ccccc1` the growth inhibition was inactive: -1.38%.
For `c1cc(-c2ccncc2)ccn1`, the growth inhibition was inactive: 9.23%.
For `Cc1csc(CCc2nc(C)cs2)n1`, the growth inhibition was inactive: 0.825%.
For `O=C(Oc1ccc2c3c(c(=O)oc2c1)CCCC3)c1ccco1`, the growth inhibition was inactive: -14.3%.
For `COc1ccc(-c2c(C)c3ccc(OCC(C)=O)cc3oc2=O)cc1`, the growth inhibition was inactive: 11.9%.
In the case of `CN1CC2CCCC3(C1)C(=O)NC1(CCCCC1)N=C23` (stereo unspecified), the growth inhibition is reported as inactive: -13.6%.
In the case of `O=C(/C=C/c1ccc2c(c1)OCO2)NCc1ccc(F)cc1`, the growth inhibition is reported as inactive: -4.35%.
In the case of `COc1ccc(-c2cc(C(=O)N3CCOCC3)c3cc(C)ccc3n2)cc1`, the growth inhibition is reported as inactive: -5.28%.
With `Cc1nnc(SCC(=O)N2CCCC(C(=O)c3ccc(Cl)cc3)C2)o1` (stereo unspecified) the growth inhibition was inactive: -4.32%.
With `Cc1ccc(C(=O)NCCNC(=O)c2ccccc2)cc1` the growth inhibition was inactive: 8.92%.
In the case of `CC(=O)Nc1cc(O)cc(O)c1`, the growth inhibition is reported as inactive: 8.04%.
For `CNCCC(Oc1ccc(C(F)(F)F)cc1)c1ccccc1` (stereo unspecified), the growth inhibition was inactive: 0.953%.
With `COc1ccc2nc(NC(=O)Nc3ccccc3)sc2c1` the growth inhibition was inactive: -1.88%.
In the case of `COC(=O)c1cc(OC)c(OC)c(OC)c1[N+](=O)[O-]`, the growth inhibition is reported as inactive: 4%.
For `C[C@]12CC[C@@H]3c4cc(O)c(O)cc4CC[C@H]3[C@@H]1CC[C@@H]2O`, the growth inhibition was inactive: 28.5%.
With `COc1cccc2c(O)cc(=O)n(C)c12` the growth inhibition was inactive: 7.56%.
With `CCCCNC(=O)NS(=O)(=O)c1ccc(C)cc1` the growth inhibition was inactive: 0.0257%.
In the case of `CC(=O)[C@H]1CC[C@H]2[C@@H]3C[C@H](C)C4=CC(=O)CC[C@]4(C)[C@H]3[C@@H](O)C[C@]12C`, the growth inhibition is reported as inactive: 0.129%.
With `CC(C)CC1c2[nH]c3ccccc3c2CCN1C(=O)CCC(=O)N(C)C` (stereo unspecified) the growth inhibition was inactive: -3.21%.
In the case of `CC(=O)N1c2ccccc2C(C)=CC1(C)C`, the growth inhibition is reported as inactive: 8.72%.
With `CCOCc1cc(C)[nH]c(=O)c1C#N` the growth inhibition was inactive: 0.203%.
In the case of `O=C(CCC(=O)c1cccs1)c1cccs1`, the growth inhibition is reported as inactive: 11%.
With `O=C1c2ccccc2C2(c3ccccc3)NCCN12` (stereo unspecified) the growth inhibition was inactive: -0.371%.
In the case of `Cc1ccc(/C=N/Nc2nc(C(C)(C)C)cs2)o1`, the growth inhibition is reported as inactive: 0.411%.
With `CC(=O)c1cccc2c(O)c(C3=Nc4ccccc4C3=O)[nH]c12` the growth inhibition was inactive: 19.7%.
With `CC(CCCC(C)(C)O)NC(=O)c1ccc(OC2CCN(C(=O)C3CC3)CC2)cc1` (stereo unspecified) the growth inhibition was inactive: 8.46%.
With `COc1cc2c(cc1OC)C(c1ccc(-c3cc(Cl)ccc3Cl)o1)=NCC2` the growth inhibition was inactive: 1.54%.
With `CC(C)OC(=O)C1C2C=CC3(CN(CC4CCCO4)C(=O)C13)O2` (stereo unspecified) the growth inhibition was inactive: 8.41%.
For `CC(C)COCC(CN(Cc1ccccc1)c1ccccc1)N1CCCC1` (stereo unspecified), the growth inhibition was inactive: -7.22%.
For `Oc1ccc(Cl)cc1Cc1cc(Cl)ccc1O`, the growth inhibition was inactive: 46%.
For `COc1ccc(OC(C)C(=O)Nc2ccccc2F)cc1` (stereo unspecified), the growth inhibition was inactive: -8.14%.
With `COc1ccc(/C=C/C(=O)NC(=S)NN2CCCCC2c2cccnc2)cc1` (stereo unspecified) the growth inhibition was inactive: -8.16%.
In the case of `O=C(Nc1nc2ccccc2s1)c1ccc(F)cc1`, the growth inhibition is reported as inactive: -16.1%.
In the case of `CCn1c2ccccc2c2cc(CC(N)=O)ccc21`, the growth inhibition is reported as inactive: -13.3%.
In the case of `CCn1c(/C=C/c2ccccc2)nc2ccccc2c1=O`, the growth inhibition is reported as inactive: -5.35%.
In the case of `N#C/C(C(N)=O)=c1/ccc2c(c1)N1C3=C(CCCC3)CC3CCCCC31N=2` (stereo unspecified), the growth inhibition is reported as inactive: 38.1%.
In the case of `CCOc1ccc2ccccc2c1CNc1nnnn1C`, the growth inhibition is reported as inactive: -6.35%.
For `Cc1ccc2ncnc(NCCCCCC(=O)O)c2c1`, the growth inhibition was inactive: 4.2%.
With `Cc1ccsc1C1NC(=O)c2ccccc2N1` (stereo unspecified) the growth inhibition was inactive: -12.4%.
In the case of `COc1ccc(OC(C)C(=O)Nc2ccc([N+](=O)[O-])cc2)cc1` (stereo unspecified), the growth inhibition is reported as inactive: -4.37%.
In the case of `COc1ccc2oc(=O)c(C(=O)N3CCN(c4ccccc4)CC3)cc2c1`, the growth inhibition is reported as inactive: -2.77%.
With `O=C(NCCCCCc1nc2ccccc2[nH]1)c1ccccc1Cl` the growth inhibition was inactive: -7.37%.
With `O=C(Nc1cccc(-c2nc3ncccc3o2)c1)c1ccccc1` the growth inhibition was inactive: -4.33%.
For `CCCCOC(=O)c1ccc(N)cc1`, the growth inhibition was inactive: -3.5%.
For `O=C(CS(=O)(=O)Cc1ccccc1)NCc1ccc2c(c1)OCO2`, the growth inhibition was inactive: 15.7%.
With `Cc1ccc(-n2ncc3c(Nc4cccc(C(=O)O)c4)ncnc32)cc1` the growth inhibition was inactive: -0.664%.
In the case of `NCCOc1ccccc1OCCN`, the growth inhibition is reported as inactive: -14.9%.
With `Cc1ccc2[nH]c3c(c2c1)CN(C(=O)CN1CCSCC1)CC3` the growth inhibition was inactive: -8.61%.
For `COc1cc(OC)cc(C(C)=O)c1`, the growth inhibition was inactive: -6.96%.
With `COCCn1c(SCCOc2ccccc2)nc2ccccc2c1=O` the growth inhibition was inactive: 3.69%.
With `CC[N+]1(C)CC2CCC(C)(C1)C2(C)C` (stereo unspecified) the growth inhibition was inactive: 1.9%.
In the case of `CC(C)(C)OC(=O)N1CCCC1C(=O)NC(Cc1ccccc1)C(=O)O` (stereo unspecified), the growth inhibition is reported as inactive: -19.4%.
For `CC(CCc1ccccc1)NC(=O)/C=C/c1ccccc1` (stereo unspecified), the growth inhibition was inactive: -11.1%.
For `COc1cc(Cc2cnc(N)nc2N)cc(OC)c1OC`, the growth inhibition was inactive: 13.7% and inactive: -12.9%.
With `CC(C)OC(=O)C1C(=O)CC(C)(O)C(C(=O)OC(C)C)C1c1cccc(O)c1` (stereo unspecified) the growth inhibition was inactive: -3.65%.
For `COc1ccc(CCN2CNc3c(c(=O)n(C)c(=O)n3C)C2)cc1OC`, the growth inhibition was inactive: 5.39%.
For `COc1ccc(CN(CCC(c2ccccc2)c2ccc(OC(C)C)cc2)C(=O)CCl)cc1OC` (stereo unspecified), the growth inhibition was inactive: -2.59%.
With `O=C(O)CCSCCC(=O)O` the growth inhibition was inactive: -0.633%.
For `CO[C@@]1(NC(=O)Cc2cccs2)C(=O)N2C(C(=O)O)=C(COC(N)=O)CS[C@@H]21`, the growth inhibition was inactive: 0.427%.
With `O=C(c1cc2cc(Br)ccc2o1)N1CCCCC1` the growth inhibition was inactive: 5.37%.
With `O=C(c1ccco1)N(CCC(c1ccccc1)c1ccco1)Cc1ccco1` (stereo unspecified) the growth inhibition was inactive: -4.9%.
With `CC(C)Oc1ccc(C(CC(=O)O)c2ccc(F)cc2)cc1` (stereo unspecified) the growth inhibition was inactive: 9.94%.
In the case of `COc1ccc(C2C(=O)c3ccccc3C2=O)cc1`, the growth inhibition is reported as inactive: -2.08%.
In the case of `Cc1cccc(C)c1NC(=O)C1CCCCN1C` (stereo unspecified), the growth inhibition is reported as inactive: 7.08%.
With `CCOC(=O)c1c(C)oc2cc(Br)c(OC(C)C(=O)OCC)cc12` (stereo unspecified) the growth inhibition was inactive: 2.34%.
For `Nc1ccc(S(N)(=O)=O)cc1N`, the growth inhibition was inactive: -5.76%.
With `Cc1ncc([N+](=O)[O-])n1CC(O)CCl` (stereo unspecified) the growth inhibition was inactive: -16.1%.
For `CN1C(C(=O)Nc2ccccn2)=C(O)c2sccc2S1(=O)=O`, the growth inhibition was inactive: -0.425%.
In the case of `CCc1ccc2oc(=O)cc(CN3CCC(C)CC3)c2c1`, the growth inhibition is reported as inactive: -13.9%.
In the case of `CCOC(=O)C1=C(N)Oc2c(oc(CO)cc2=O)C1c1ccc(F)c(F)c1` (stereo unspecified), the growth inhibition is reported as inactive: -16.3%.
In the case of `C[C@]12CC[C@H]3C(=CCc4cc(O)ccc43)[C@@H]1CCC2=O`, the growth inhibition is reported as inactive: -9.44%.
In the case of `COc1ccc(CNCCC(c2ccc(F)cc2)c2ccc(OC(C)C)cc2)cc1OC` (stereo unspecified), the growth inhibition is reported as inactive: 5.07%.
For `CC(C)COCC1CC2(CC(C)(c3csc(N)n3)OC2=O)C(=O)O1` (stereo unspecified), the growth inhibition was inactive: -15.4%.
For `COc1c(C)cc(C(=O)C2CCCN(Cc3ccc(Oc4ncccn4)cc3)C2)cc1C` (stereo unspecified), the growth inhibition was inactive: -1.97%.
With `CCOC(=O)C1C2C=CC3(CN(c4ccc(Cl)c(F)c4)C(=O)C13)O2` (stereo unspecified) the growth inhibition was inactive: -8.51%.
In the case of `Cn1c(=O)c2[nH]cnc2n(C)c1=O`, the growth inhibition is reported as inactive: -18.8%.
In the case of `C#C[C@]1(O)CC[C@H]2[C@@H]3CCc4cc(OC5CCCC5)ccc4[C@H]3CC[C@@]21C`, the growth inhibition is reported as inactive: -16.8%.
For `CN(C)CCC=C1c2ccccc2CCc2ccccc21`, the growth inhibition was inactive: 24.8%.
In the case of `Cc1ccnc2c1NC(=O)c1cccnc1N2C1CC1`, the growth inhibition is reported as inactive: -3.14%.
In the case of `COc1cc(C(=O)OCCn2c(=O)c3c(ncn3CCN(C)C)n(C)c2=O)cc(OC)c1OC`, the growth inhibition is reported as inactive: -17.9%.
In the case of `COc1ccc(CN2CCC(=O)NC2=O)cc1`, the growth inhibition is reported as inactive: 3.24%.
With `COc1ccc(-c2c[n+](CC(=O)OC3CC(C)CCC3C(C)C)c3n2CCC3)cc1` (stereo unspecified) the growth inhibition was inactive: -2.28%.
With `O=C(COc1ccccc1)N1CCN(c2ccccc2)CC1` the growth inhibition was inactive: 4.01%.
In the case of `COC(=O)c1cc(OC)c(OC)cc1NC(=O)Nc1ccc(OC)cc1OC`, the growth inhibition is reported as inactive: -0.763%.
In the case of `Cc1cc(C)cc(Nc2nc3c([nH]2)c(=O)n(C)c(=O)n3C)c1`, the growth inhibition is reported as inactive: 1.4%.
With `CC(C)(C)C(=O)NCCCNc1ccc([N+](=O)[O-])cc1` the growth inhibition was inactive: 4.14%.
For `CN1CCCN=C1COC(=O)C(O)(c1ccccc1)C1CCCCC1` (stereo unspecified), the growth inhibition was inactive: -1.2%.
